Assay [1] deals with CD47 protein (Acrobiosystems, cat#CD7-HA2E9) (UniProt Q08722). The assay is described as follows: ELISA on coated CD47 protein.
The target is the same in assay [2]. The assay is described as follows: ELISA screening of hybridoma clones.

Sequences of proteins named here, by UniProt entry; tags and fusion partners are left off. Residues count along the entry.
UniProt Q08722, residues 19-139: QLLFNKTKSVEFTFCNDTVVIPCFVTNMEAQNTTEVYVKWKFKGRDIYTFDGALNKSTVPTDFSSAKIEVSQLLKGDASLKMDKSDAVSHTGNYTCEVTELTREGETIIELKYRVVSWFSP

Results are given in words; binding and its absence hold for the method and conditions named. Some binding calls cover weakened binding; strength is not graded here.

B1: 4E12 antibody (antibody, V domains shown)
VH: QIQFAQSGPELKKSGETVKISCRASGYTFTNYGMNWVKQAPGKGLKWMGWINTYTGEPTYADDFKGRFAFSLETSASTAYLQINNLKNEDMATYFCARGGGRGAMDYWGQGTTLTVSS
VL: DVLMTQTPLSLPVSLGDQASISCRSSQSIVHSNGNTYLDWYLQKPGQSPKLLIYKVSKRFSGVPDRFSGSGSGTDFTLKISRVEAEDLGVYYCFQGSHVPFTFGSGTKLEIK
notes: Hybridoma monoclonal antibody detected with anti-mouse IgG
For the molecule B1, the binding result in assay [1] and in assay [2] was “binds” throughout.

B2: 7C7 antibody (antibody, V domains shown)
VH: EVQLQQSGPELVKPGASVRMSCKASGYTFTSYVMHWVKQKPGQGLEWIGYINPYNDGTKYNEKFKGKSTLTSDKSSSTAYMELSSLTSEDSAVYCCARGRNRYDSWFAYWGQGTLVTVSA
VL: DIQMTQTTSSLSASLGDRVTISCRASQDISNYLNWYQQKPDGTVKLLIYYTSRLHSGVPSRFSGSGSGTDYSLTISNLEQEDIATYFCQQGNTLPWTFGGGTKLEIK
notes: Monoclonal antibody from a hybridoma (mouse myeloma fusion), detected with anti-mouse IgG; In the ELISA hybridoma culture solution was used
Regarding B2, the binding entry in assay [1] and in assay [2] was “binds” each time.

B3: 3H3 antibody (antibody, V domains shown)
VH: EVQLQQPGPELVRPGASVKMSCKASGYTFTNYWMHWVKQRPGQGLEWIGMIDPSNSETRLNQKFKDKATLNVDKSSNTAYMQLSSLTSEDSAVYSCARGGFAFDSWGQGTTLTVSS
VL: DVLMTQTPLSLPVSLGDQASISCRSSQSLVHNNGNTYLHWYLQKPGQSPKLLIYKVSNRFSGVPDRFRGSGSGTDFTLKISRVEAEDLGVYFCSQSTHVPWTFGGGTKLEIK
notes: as for B1
Turning to B3, the binding result in assay [1] and in assay [2] was “binds” throughout.

Source of the values: patent US20240034790A1 (INNOBATION BIO, published 2024).
